The record followed here is PubChem BioAssay AID330 (DTP/NCI, 2004).

This test deals with P388 leukemia ip, CD2F1 mice, survival T/C. Description: NCI In Vivo Anticancer Drug Screen. Data for tumor model P388 Leukemia (intraperitoneal) in CD2F1 (CDF1) mice. As to conditions: T/C endpoint: median survival time, higher T/C = longer survival.
Setting [1] is: dose: 240.0 mg/kg/injection, schedule: Q01DX005 (ip), vehicle: Klucel (hydroxypropylcellulose) (HPC).
Setting [2] is: dose: 400.0 mg/kg/injection, schedule: Q01DX009 (ip), vehicle: saline with Tween-80.
Where [3] appears, read: dose: 100.0 mg/kg/injection, schedule: Q01DX009 (ip), vehicle: saline with Tween-80.
The mark [4] stands for this setting: dose: 200.0 mg/kg/injection, schedule: Q01DX009 (ip), vehicle: saline with Tween-80.
Where [5] appears, read: dose: 240.0 mg/kg/injection, schedule: Q01DX005 (ip), vehicle: saline with Tween-80.
Where [6] appears, read: dose: 200.0 mg/kg/injection, schedule: Q01DX005 (ip), vehicle: saline with Tween-80.
[7] abbreviates: dose: 50.0 mg/kg/injection, schedule: Q01DX005 (ip), vehicle: saline with Tween-80.
The mark [8] stands for this setting: dose: 100.0 mg/kg/injection, schedule: Q01DX005 (ip), vehicle: saline with Tween-80.

SMILES strings stand for the structures. The list does not hold the whole screen: it gathers tests that were run many times, whatever their T/C, doses with no T/C, and many T/C values between a quarter and a half above the control. Other doses and runs of a compound stand elsewhere. T/C: endpoint of the treated group in % of that of the vehicle group. Some doses have a count of surviving animals in place of a T/C: the source holds a T/C of zero for them, seemingly a mark for toxic or unscored doses. Some doses without a T/C left all or most animals alive at the check, yet need not have been tolerated: survival well below the control is almost never listed, so the zero probably covers shortened survival too. Survivors were counted at the toxicity check, usually on the fifth day, unless a day is given; later deaths do not show. Schedules are NCI's codes, taken here to give the interval after Q, in days (D) or hours (H), and the number of doses after X. Some doses were run more than once; their values stand side by side, smallest first. Some structures stand for samples that the source files as different forms (salt, stereo form or complex); doses refer to the form tested. Where survival is the endpoint, this PubChem deposit counts one and a half times the control or more as active, and values a quarter to a half above the control carry no call in these data; other NCI protocols may use other cut-offs.

`COc1cc2c3cc1Oc1c(OC)c(OC)cc4c1[C@@H](Cc1ccc(O)c(c1)Oc1ccc(cc1)C[C@@H]3N(C)CC2)N(C)CC4`: the survivor count under setting [1] was 0 of 6 and 2 of 6.
As for `CCN(CC)Cc1c2c(O)c3c(O)c(C)c4c(c3c1O)C(=O)C(C)(O/C=C/C(OC)C(C)C(OC(C)=O)C(C)C(O)C(C)C(O)C(C)/C=C/C=C(\C)C(=O)N2)O4` (centres undefined), the T/C (dose: 200.0 mg/kg/injection, schedule: Q01DX009 (ip), vehicle: Klucel (hydroxypropylcellulose) (HPC)) was 125 % of control. In addition, the survivor count under setting [2] is listed as 6 of 6.
With `Cc1c2c(C(N)=O)nccc2c(C)c2c1c1ccccc1n2Cc1ccccc1`, the survivor count was 6 of 6 (dose: 6.25 mg/kg/injection, schedule: Q04DX003 (ip), vehicle: distilled water + Tween-80); 6 of 6 (dose: 12.5 mg/kg/injection, schedule: Q04DX003 (ip), vehicle: distilled water + Tween-80); 6 of 6 (dose: 25.0 mg/kg/injection, schedule: Q04DX003 (ip), vehicle: distilled water + Tween-80); 6 of 6 (dose: 50.0 mg/kg/injection, schedule: Q04DX003 (ip), vehicle: distilled water + Tween-80).
On to `O=C1C=CCCCC1`, for which the survivor count is, setting by setting: under setting [3], 4 of 6; (dose: 150.0 mg/kg/injection, schedule: Q01DX009 (ip), vehicle: saline with Tween-80) 3 of 6.
On to `CC1=CCC(C(C)C)C=C1` (centres undefined), for which the survivor count is 5 of 6 under setting [4] and 0 of 6 under setting [2].
As for `O=C(O)C(O)C(O)C(O)C(O)CO.[Mn]` (centres undefined), under setting [3], the T/C is 130 % of control. The survivor count under setting [4] is 5 of 6.
For the compound `NC(=O)CN1CCN(c2ccnc3cc(Cl)ccc23)CC1`, the survivor count is, setting by setting: (dose: 200.0 mg/kg/injection, schedule: Q04DX002 (ip), vehicle: saline with Tween-80) 6 of 6; (dose: 400.0 mg/kg/injection, schedule: Q04DX002 (ip), vehicle: saline with Tween-80) 0 of 6.
For `CC(=O)Oc1ccc2c3c1O[C@H]1[C@@H](OC(C)=O)C=C[C@H]4[C@@H](C2)N(C)CC[C@@]341`, the survivor count (dose: 400.0 mg/kg/injection, schedule: Q01DX009 (ip), vehicle: saline) is listed as 0 of 6.
With `CCCCc1ccc2nc(C)cc(N=[N+]=[N-])c2c1`, the survivor count under setting [5] is given as 2 of 6.
For the compound `C/C(=N\N=C(/N)N1CCCC1)c1ccc2c(c1)Cc1cc(/C(C)=N/N=C(\N)N3CCCC3)ccc1-2`, the survivor count (dose: 100.0 mg/kg/injection, schedule: Q04DX002 (ip), vehicle: saline with Tween-80) is 0 of 6.
On to `CCCOP(=S)(N1CC1C)N1CC1(C)C` (centres undefined), for which the T/C was 136 % of control (dose: 25.0 mg/kg/injection, schedule: Q04DX003 (ip), vehicle: saline with Tween-80) and 131 % of control (dose: 50.0 mg/kg/injection, schedule: Q01DX009 (ip), vehicle: saline with Tween-80). For the same compound, the survivor count under setting [4] was 5 of 6.
On to `CCCCCNc1ncnc2[nH]ncc12`, for which the survivor count under setting [6] was 0 of 5.
`CC(=O)c1ccc2c(c1)N(CCCN1CCN(CCO)CC1)c1ccccc1S2`: for the setting “dose: 6.25 mg/kg/injection, schedule: Q01DX009 (ip), vehicle: saline”, the survivor count is listed as 6 of 6.
Consider `CC1=C(C)CC2C(=O)c3c(c(O)c4ccccc4c3Cl)C(=O)C2C1` (centres undefined), for which the survivor count reads like this: (dose: 100.0 mg/kg/injection, schedule: Q01DX001 (ip), vehicle: Klucel (hydroxypropylcellulose) (HPC)) 6 of 6; (dose: 200.0 mg/kg/injection, schedule: Q01DX001 (ip), vehicle: Klucel (hydroxypropylcellulose) (HPC)) 5 of 6; (dose: 400.0 mg/kg/injection, schedule: Q01DX001 (ip), vehicle: Klucel (hydroxypropylcellulose) (HPC)) 3 of 6.
Regarding `O=C(O)C1C(C(=O)O)C2C(=O)C=CC1N2Cc1ccccc1` (centres undefined), under “dose: 200.0 mg/kg/injection, schedule: Q01DX005 (ip), vehicle: Klucel (hydroxypropylcellulose) (HPC)”, the survivor count is 2 of 6 and 4 of 6.
Consider `CC[As](CC)SC1OC(C2COC(C)(C)O2)C2OC(C)(C)OC12` (centres undefined), for which the survivor count was 4 of 6 (dose: 100.0 mg/kg/injection, schedule: Q01DX009 (ip), vehicle: distilled water + Tween-80) and 0 of 6 (dose: 200.0 mg/kg/injection, schedule: Q01DX009 (ip), vehicle: distilled water + Tween-80).
Turning to `Oc1ccc(O)c([P+](c2ccccc2)(c2ccccc2)c2ccccc2)c1`, under setting [4], the T/C is 130 % of control.
In the case of `CC(C)(C)C1=CS(=O)(=O)C1`, the survivor count (dose: 6.25 mg/kg/injection, schedule: Q01DX001 (ip), vehicle: saline with Tween-80) was 0 of 6; the survivor count (dose: 12.5 mg/kg/injection, schedule: Q01DX001 (ip), vehicle: saline with Tween-80) is recorded as 0 of 6; the survivor count (dose: 25.0 mg/kg/injection, schedule: Q01DX001 (ip), vehicle: saline with Tween-80) is recorded as 0 of 6; the survivor count (dose: 50.0 mg/kg/injection, schedule: Q01DX001 (ip), vehicle: saline with Tween-80) is 0 of 6; the survivor count (dose: 100.0 mg/kg/injection, schedule: Q01DX001 (ip), vehicle: saline with Tween-80) is listed as 0 of 6; the survivor count (dose: 200.0 mg/kg/injection, schedule: Q01DX001 (ip), vehicle: saline with Tween-80) was 0 of 6. Moreover, the survivor count (dose: 400.0 mg/kg/injection, schedule: Q01DX001 (ip), vehicle: saline with Tween-80) is recorded as 0 of 6.
`CN1CCC23c4c5ccc(O)c4OC2C(=NN=C2CCC4(O)C6Cc7ccc(O)c8c7C4(CCN6C)C2O8)CCC3(O)C1C5` (centres undefined): the survivor count is, setting by setting: under setting [7], 0 of 6 and 3 of 6; under setting [8], 0 of 6; under setting [6], 0 of 6.
For the compound `CC(=O)C[n+]1cccc(C)c1Sc1ccccc1`, the survivor count reads like this: under setting [8], 0 of 5; under setting [6], 0 of 5.
Regarding `COC(=O)c1nc(N)nc(C(=O)OC)c1C(=O)c1ccccc1`, under setting [1], the survivor count was 0 of 6.
In the case of `COC(=O)c1c(OC)cc2cc3c(c(O)c2c1C)C(=O)C1(O)C(=O)C=C(OC)C(OC(=O)CC(C)N)=C1C3=O` (centres undefined), the survivor count (dose: 200.0 mg/kg/injection, schedule: Q01DX005 (ip), vehicle: water) is reported as 1 of 6.
Regarding `Nc1ncnc2nc[nH]c12`, the survivor count (dose: 64.0 mg/kg/injection, schedule: Q01DX009 (ip), vehicle: Klucel (hydroxypropylcellulose) (HPC)) is 5 of 6 and 6 of 6; the survivor count (dose: 128.0 mg/kg/injection, schedule: Q01DX009 (ip), vehicle: Klucel (hydroxypropylcellulose) (HPC)) is on record as 5 of 6; the survivor count (dose: 256.0 mg/kg/injection, schedule: Q01DX009 (ip), vehicle: Klucel (hydroxypropylcellulose) (HPC)) was 3 of 6 and 6 of 6; the survivor count (dose: 512.0 mg/kg/injection, schedule: Q01DX009 (ip), vehicle: Klucel (hydroxypropylcellulose) (HPC)) is given as 0 of 6; the survivor count (dose: 512.0 mg/kg/injection, schedule: Q01DX009 (ip), vehicle: saline with Tween-80) is 1 of 6 and 2 of 6. The T/C (dose: 256.0 mg/kg/injection, schedule: Q01DX009 (ip), vehicle: saline with Tween-80) is 126 % of control.
Take `Cc1c(C)c(=O)c2cc3c(=O)ccc(=O)c3cc2c1=O`: the survivor count is, setting by setting: (dose: 100.0 mg/kg/injection, schedule: Q04DX003 (ip), vehicle: Klucel (hydroxypropylcellulose) (HPC)) 2 of 6; (dose: 200.0 mg/kg/injection, schedule: Q04DX003 (ip), vehicle: Klucel (hydroxypropylcellulose) (HPC)) 0 of 6; (dose: 400.0 mg/kg/injection, schedule: Q04DX003 (ip), vehicle: Klucel (hydroxypropylcellulose) (HPC)) 0 of 6.
For the compound `CN1c2ccccc2C(=O)N2C(=O)CCC21C` (centres undefined), the survivor count under setting [5] is given as 0 of 6.
Take `O=C1C=CC2OC(c3ccccc3)C(O)C2O1` (centres undefined): the survivor count is 1 of 6 (dose: 45.0 mg/kg/injection, schedule: Q01DX009 (ip), vehicle: DMSO); 3 of 6 (dose: 50.0 mg/kg/injection, schedule: Q01DX005 (ip), vehicle: DMSO); 6 of 6 under setting [7]; 0 of 4 (dose: 50.0 mg/kg/injection, schedule: Q01DX009 (ip), vehicle: distilled water + Tween-80 + alcohol); 0 of 6 under setting [8].
